Article doi:10.1101/038398
No constants are given. Whether binding was seen depends on the method and setting. In cells and extracts the contact can be indirect. Some binding calls cover weakened binding; strength is not graded here.

The chains behind the UniProt entries cited, without tags or fusion partners.
UniProt P35228: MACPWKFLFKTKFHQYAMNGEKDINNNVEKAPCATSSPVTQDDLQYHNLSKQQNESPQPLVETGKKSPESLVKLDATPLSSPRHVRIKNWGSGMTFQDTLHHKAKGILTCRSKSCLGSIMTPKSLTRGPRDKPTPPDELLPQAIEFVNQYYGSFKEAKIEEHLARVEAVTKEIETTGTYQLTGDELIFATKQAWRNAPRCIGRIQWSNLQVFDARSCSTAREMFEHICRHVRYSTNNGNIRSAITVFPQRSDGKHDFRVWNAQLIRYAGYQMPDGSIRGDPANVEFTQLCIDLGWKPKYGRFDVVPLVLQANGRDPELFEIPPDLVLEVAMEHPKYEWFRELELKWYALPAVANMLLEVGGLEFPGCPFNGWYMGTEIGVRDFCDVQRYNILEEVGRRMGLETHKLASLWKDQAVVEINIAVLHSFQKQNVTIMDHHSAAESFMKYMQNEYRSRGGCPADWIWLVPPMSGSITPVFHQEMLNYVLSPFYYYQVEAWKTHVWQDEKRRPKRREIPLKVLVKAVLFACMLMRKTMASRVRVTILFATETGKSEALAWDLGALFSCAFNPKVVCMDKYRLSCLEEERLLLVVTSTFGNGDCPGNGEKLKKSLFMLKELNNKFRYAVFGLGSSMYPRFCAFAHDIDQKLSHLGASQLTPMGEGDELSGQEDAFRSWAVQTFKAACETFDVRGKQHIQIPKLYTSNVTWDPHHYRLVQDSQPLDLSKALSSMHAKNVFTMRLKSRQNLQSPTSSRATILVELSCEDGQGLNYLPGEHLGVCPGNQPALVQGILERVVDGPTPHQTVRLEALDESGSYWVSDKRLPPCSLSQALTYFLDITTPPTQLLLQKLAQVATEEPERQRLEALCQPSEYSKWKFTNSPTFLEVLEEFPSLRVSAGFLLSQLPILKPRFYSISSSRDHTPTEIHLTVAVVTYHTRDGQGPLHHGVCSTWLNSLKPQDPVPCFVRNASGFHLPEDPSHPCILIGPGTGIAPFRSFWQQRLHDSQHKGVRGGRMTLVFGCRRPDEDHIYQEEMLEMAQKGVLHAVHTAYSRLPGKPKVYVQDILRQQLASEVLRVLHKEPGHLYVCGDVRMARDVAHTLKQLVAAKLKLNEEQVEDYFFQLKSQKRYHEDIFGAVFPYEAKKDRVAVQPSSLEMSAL

Biological target: iNOS, endogenous in primary human monocytes (human (endogenous in primary human monocytes)) (UniProt P35228)
Assay: proximity ligation

binding: binds
B1: NOSIP, endogenous in primary human monocytes (protein, UniProt Q9Y314 1-301)
chain: MTRHGKNCTAGAVYTYHEKKKDTAASGYGTQNIRLSRDAVKDFDCCCLSLQPCHDPVVTPDGYLYEREAILEYILHQKKEIARQMKAYEKQRGTRREEQKELQRAASQDHVRGFLEKESAIVSRPLNPFTAKALSGTSPDDVQPGPSVGPPSKDKDKVLPSFWIPSLTPEAKATKLEKPSRTVTCPMSGKPLRMSDLTPVHFTPLDSSVDRVGLITRSERYVCAVTRDSLSNATPCAVLRPSGAVVTLECVEKLIRKDMVDPVTGDKLTDRDIIVLQRGGTGFAGSGVKLQAEKSRPVMQA
